Results: article PMC8590022
Results are given in words; binding and its absence hold for the method and conditions named. For some of these results: In cells and extracts the contact can be indirect. Some results given as binding are weak or reduced against the parent protein; the word gives no strength. For some of these results: Sequences can lack the tags named with a protein. Values belong to the molecule of their own block, whether it stands above or below them.

Amino acid sequences for entries named in this document (tags omitted).
UniProt Q04206: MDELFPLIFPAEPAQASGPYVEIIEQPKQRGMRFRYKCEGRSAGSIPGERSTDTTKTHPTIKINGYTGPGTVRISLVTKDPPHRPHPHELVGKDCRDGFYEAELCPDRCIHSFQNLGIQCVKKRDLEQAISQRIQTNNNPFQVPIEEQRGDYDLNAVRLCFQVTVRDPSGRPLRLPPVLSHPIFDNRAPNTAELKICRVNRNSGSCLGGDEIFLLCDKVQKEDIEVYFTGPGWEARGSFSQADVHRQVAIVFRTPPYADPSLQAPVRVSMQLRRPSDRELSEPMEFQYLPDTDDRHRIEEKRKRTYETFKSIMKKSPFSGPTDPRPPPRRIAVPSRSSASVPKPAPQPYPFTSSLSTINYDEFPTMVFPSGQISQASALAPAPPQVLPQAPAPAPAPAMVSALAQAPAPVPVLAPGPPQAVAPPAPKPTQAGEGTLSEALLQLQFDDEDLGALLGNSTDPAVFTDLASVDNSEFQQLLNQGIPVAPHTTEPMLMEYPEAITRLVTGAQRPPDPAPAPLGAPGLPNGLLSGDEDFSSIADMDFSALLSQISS
UniProt P05412: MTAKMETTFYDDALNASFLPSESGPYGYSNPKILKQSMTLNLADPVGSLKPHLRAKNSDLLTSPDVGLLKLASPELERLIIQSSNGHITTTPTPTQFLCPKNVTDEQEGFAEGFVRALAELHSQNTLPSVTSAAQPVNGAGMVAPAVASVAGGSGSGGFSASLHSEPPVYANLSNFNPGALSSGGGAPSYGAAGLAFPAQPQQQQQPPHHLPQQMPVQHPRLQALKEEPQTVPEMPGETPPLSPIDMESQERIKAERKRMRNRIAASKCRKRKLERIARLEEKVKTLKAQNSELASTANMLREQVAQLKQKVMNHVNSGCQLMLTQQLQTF
UniProt Q13547: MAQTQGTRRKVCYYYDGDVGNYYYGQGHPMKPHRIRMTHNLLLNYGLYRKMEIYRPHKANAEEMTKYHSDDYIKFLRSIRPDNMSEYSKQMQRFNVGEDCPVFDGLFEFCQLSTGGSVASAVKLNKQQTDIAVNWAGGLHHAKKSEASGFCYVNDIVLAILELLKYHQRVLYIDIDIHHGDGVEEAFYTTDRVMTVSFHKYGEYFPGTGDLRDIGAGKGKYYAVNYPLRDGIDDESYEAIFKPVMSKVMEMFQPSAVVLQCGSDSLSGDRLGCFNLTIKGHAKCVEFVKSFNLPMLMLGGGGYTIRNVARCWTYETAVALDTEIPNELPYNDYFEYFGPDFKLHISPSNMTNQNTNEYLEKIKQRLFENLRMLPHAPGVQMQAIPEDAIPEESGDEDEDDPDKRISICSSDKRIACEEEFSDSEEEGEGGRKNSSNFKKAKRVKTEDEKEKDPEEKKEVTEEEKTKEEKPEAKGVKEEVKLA

How the values were obtained:
GFP-p65 [1] = target: GFP-p65 (UniProt Q04206); assay: co-IP; HEK 293T cells transfected with tagged proteins; RIPA lysate, antibody (anti-GFP, anti-Myc or anti-Flag) 6 h at 4 °C, Protein A/G agarose 4 h at 4 °C, Western blot; for p65 and HDAC1 also with or without co-expressed Flag-DACH1
GFP-p65 [2] = target: GFP-p65 (UniProt Q04206); assay: ChIP-reChIP; HEK 293T cells transfected with Flag-DACH1 and GFP-c-Jun or GFP-p65, cross-linked with 1% formaldehyde; DNA-protein complexes immunoprecipitated with anti-GFP or anti-IgG, re-immunoprecipitated with anti-Flag; region 3 (AP-1 site) or region 1 (NF-κB site) of the MMP9 promoter amplified by PCR
GFP-c-Jun [3] = target: GFP-c-Jun (UniProt P05412); assay: as above
GFP-p65 [4] = target: GFP-p65 (UniProt Q04206); assay: co-IP; HEK 293T cells transfected with tagged proteins; RIPA lysate, antibody (anti-GFP, anti-Myc or anti-Flag) 6 h at 4 °C, Protein A/G agarose 4 h at 4 °C, Western blot; for p65 and HDAC1 also with or without co-expressed Flag-DACH1; remark: listed apart in the source
GFP-c-Jun [5] = target: GFP-c-Jun (UniProt P05412); assay: as above
[6] = target: Myc-HDAC1 (histone deacetylase 1) (UniProt Q13547); assay: as above
[7] = target: endogenous p65 (human (endogenous in ZR-75-30)) (UniProt Q04206); assay: co-IP; endogenous proteins of ZR-75-30 cells; immunoprecipitation with anti-p65 or anti-IgG antibody, Western blot with anti-DACH1 antibody

binding (GFP-p65 [1]): binds
Molecule: Myc-HDAC1 (histone deacetylase 1) (from UniProt Q13547 1-482)

binding (GFP-p65 [2]): binds
binding (GFP-c-Jun [3]): binds
binding (GFP-p65 [4]): binds
binding (GFP-c-Jun [5]): binds
binding [6]: binds
B1: Flag-DACH1 (human Dachshund homolog 1) (protein, UniProt Q9UI36-2 1-706)
chain: MAVPAALIPPTQLVPPQPPISTSASSSGTTTSTSSATSSPAPSIGPPASSGPTLFRPEPIASAAAAAATVTSTGGGGGGGGSGGGGGSSGNGGGGGGGGGGSNCNPNLAAASNGSGGGGGGISAGGGVASSTPINASTGSSSSSSSSSSSSSSSSSSSSSSSSCGPLPGKPVYSTPSPVENTPQNNECKMVDLRGAKVASFTVEGCELICLPQAFDLFLKHLVGGLHTVYTKLKRLEITPVVCNVEQVRILRGLGAIQPGVNRCKLISRKDFETLYNDCTNASSRPGRPPKRTQSVTSPENSHIMPHSVPGLMSPGIIPPTGLTAAAAAAAAATNAAIAEAMKVKKIKLEAMSNYHASNNQHGADSENGDMNSSVGLELPFMMMPHPLIPVSLPPASVTMAMSQMNHLSTIANMAAAAQVQSPPSRVETSVIKERVPDSPSPAPSLEEGRRPGSHPSSHRSSSVSSSPARTESSSDRIPVHQNGLSMNQMLMGLSPNVLPGPKEGDLAGHDMGHESKRMHIEKDETPLSTPTARDSLDKLSLTGHGQPLPPGFPSPFLFPDGLSSIETLLTNIQGLLKVAIDNARAQEKQVQLEKTELKMDFLRERELRETLEKQLAMEQKNRAIVQKRLKKEKKAKRKLQEALEFETKRREQAEQTLKQAASTDSLRVLNDSLTPEIEADRSGGRTDAERTIQDGRLYLKTTVMY

binding [7]: binds
B2: endogenous DACH1 (protein, UniProt Q9UI36-2 1-706)
chain: B1 chain
